Publication PMC5370002
These are yes or no findings as the source states them, for the method shown. Binding seen in cells or lysates may run through a third protein. Some binding calls cover weakened binding; strength is not graded here.

Biological target: T1, inhibitor of apoptosis stimulating protein of p53 (iASPP) (human (endogenous in Huh-7 and Hep3B)) (UniProt Q8WUF5)
T1 sequence: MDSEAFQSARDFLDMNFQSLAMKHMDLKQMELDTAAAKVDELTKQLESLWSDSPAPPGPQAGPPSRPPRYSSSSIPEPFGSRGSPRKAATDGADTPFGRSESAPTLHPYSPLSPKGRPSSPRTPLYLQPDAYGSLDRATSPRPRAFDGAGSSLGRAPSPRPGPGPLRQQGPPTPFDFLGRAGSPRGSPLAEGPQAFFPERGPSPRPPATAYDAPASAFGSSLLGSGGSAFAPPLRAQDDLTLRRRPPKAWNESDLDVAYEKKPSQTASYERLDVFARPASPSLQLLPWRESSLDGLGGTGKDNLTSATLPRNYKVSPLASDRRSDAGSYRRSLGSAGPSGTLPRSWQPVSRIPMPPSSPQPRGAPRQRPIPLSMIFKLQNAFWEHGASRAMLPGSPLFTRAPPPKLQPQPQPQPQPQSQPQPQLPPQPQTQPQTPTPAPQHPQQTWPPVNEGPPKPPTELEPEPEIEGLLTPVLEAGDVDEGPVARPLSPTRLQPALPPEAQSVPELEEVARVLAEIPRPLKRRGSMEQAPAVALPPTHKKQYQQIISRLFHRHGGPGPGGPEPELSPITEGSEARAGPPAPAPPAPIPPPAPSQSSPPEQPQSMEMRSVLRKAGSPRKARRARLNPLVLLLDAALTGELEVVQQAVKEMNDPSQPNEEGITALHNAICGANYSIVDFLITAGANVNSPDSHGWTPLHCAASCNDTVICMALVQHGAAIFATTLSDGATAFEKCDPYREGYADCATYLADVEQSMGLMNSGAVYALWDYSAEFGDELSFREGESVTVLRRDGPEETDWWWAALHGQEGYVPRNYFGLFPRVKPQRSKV
Test: co-IP; iASPP immunoprecipitated with anti-iASPP antibody from 500 ug total protein lysate of Huh-7 and Hep3B cells, with or without NT4-37AA/rAAV; Protein G Sepharose, 4°C; Western blot

binding: binds
B1: p73 (protein, UniProt O15350 1-636)
chain: MAQSTATSPDGGTTFEHLWSSLEPDSTYFDLPQSSRGNNEVVGGTDSSMDVFHLEGMTTSVMAQFNLLSSTMDQMSSRAASASPYTPEHAASVPTHSPYAQPSSTFDTMSPAPVIPSNTDYPGPHHFEVTFQQSSTAKSATWTYSPLLKKLYCQIAKTCPIQIKVSTPPPPGTAIRAMPVYKKAEHVTDVVKRCPNHELGRDFNEGQSAPASHLIRVEGNNLSQYVDDPVTGRQSVVVPYEPPQVGTEFTTILYNFMCNSSCVGGMNRRPILIIITLEMRDGQVLGRRSFEGRICACPGRDRKADEDHYREQQALNESSAKNGAASKRAFKQSPPAVPALGAGVKKRRHGDEDTYYLQVRGRENFEILMKLKESLELMELVPQPLVDSYRQQQQLLQRPSHLQPPSYGPVLSPMNKVHGGMNKLPSVNQLVGQPPPHSSAATPNLGPVGPGMLNNHGHAVPANGEMSSSHSAQSMVSGSHCTPPPPYHADPSLVSFLTGLGCPNCIEYFTSQGLQSIYHLQNLTIEDLGALKIPEQYRMTIWRGLQDLKQGHDYSTAQQLLRSSNAATISIGGSGELQRQRVMEAVHFRVRHTITIPNRGGPGGGPDEWADFGFDLPDCKARKQPIKEEFTEAEIH
